# According to article PMC9984195:
# Protein sequences, listed by entry. Tags and fused reporters are not part of them.
# UniProt Q61025: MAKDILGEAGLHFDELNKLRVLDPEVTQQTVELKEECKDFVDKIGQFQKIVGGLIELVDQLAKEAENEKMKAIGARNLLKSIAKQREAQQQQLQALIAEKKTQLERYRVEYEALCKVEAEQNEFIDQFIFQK
# Results are given in words; binding and its absence hold for the method and conditions named. For some of these results: In cells and extracts the contact can be indirect. Some entries that bind do so weakly or less than the wild type. For some of these results: Where a sequence is shown, tags or fusion partners need not be part of it.
# T1: Cep78-HA (mouse) (UniProt Q6IRU7)
# T1 sequence: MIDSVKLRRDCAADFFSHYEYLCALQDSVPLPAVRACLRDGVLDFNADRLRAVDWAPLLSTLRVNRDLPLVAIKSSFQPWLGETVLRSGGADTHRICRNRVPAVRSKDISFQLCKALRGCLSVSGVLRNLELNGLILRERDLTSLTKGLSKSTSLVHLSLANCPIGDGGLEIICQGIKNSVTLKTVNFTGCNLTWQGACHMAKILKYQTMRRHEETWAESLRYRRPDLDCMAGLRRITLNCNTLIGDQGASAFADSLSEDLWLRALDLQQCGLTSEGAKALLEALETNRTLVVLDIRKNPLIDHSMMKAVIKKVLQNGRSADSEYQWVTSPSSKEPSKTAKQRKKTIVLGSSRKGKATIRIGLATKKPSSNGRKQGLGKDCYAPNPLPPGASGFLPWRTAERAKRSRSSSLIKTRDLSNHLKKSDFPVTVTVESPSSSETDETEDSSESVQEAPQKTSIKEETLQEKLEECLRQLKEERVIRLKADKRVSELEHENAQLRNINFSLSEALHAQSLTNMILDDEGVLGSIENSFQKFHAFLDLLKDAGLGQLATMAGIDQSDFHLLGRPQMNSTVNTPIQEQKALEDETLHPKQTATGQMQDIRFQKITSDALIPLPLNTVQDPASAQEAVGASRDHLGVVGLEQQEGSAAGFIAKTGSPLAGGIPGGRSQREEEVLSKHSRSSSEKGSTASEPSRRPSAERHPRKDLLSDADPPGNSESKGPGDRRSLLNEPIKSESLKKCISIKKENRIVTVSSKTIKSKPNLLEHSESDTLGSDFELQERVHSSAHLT
# T2: Centrosomal protein of 78 kDa (Cep78), endogenous mouse testicular protein (mouse (endogenous in testis)) (UniProt Q6IRU7)
# T2 sequence: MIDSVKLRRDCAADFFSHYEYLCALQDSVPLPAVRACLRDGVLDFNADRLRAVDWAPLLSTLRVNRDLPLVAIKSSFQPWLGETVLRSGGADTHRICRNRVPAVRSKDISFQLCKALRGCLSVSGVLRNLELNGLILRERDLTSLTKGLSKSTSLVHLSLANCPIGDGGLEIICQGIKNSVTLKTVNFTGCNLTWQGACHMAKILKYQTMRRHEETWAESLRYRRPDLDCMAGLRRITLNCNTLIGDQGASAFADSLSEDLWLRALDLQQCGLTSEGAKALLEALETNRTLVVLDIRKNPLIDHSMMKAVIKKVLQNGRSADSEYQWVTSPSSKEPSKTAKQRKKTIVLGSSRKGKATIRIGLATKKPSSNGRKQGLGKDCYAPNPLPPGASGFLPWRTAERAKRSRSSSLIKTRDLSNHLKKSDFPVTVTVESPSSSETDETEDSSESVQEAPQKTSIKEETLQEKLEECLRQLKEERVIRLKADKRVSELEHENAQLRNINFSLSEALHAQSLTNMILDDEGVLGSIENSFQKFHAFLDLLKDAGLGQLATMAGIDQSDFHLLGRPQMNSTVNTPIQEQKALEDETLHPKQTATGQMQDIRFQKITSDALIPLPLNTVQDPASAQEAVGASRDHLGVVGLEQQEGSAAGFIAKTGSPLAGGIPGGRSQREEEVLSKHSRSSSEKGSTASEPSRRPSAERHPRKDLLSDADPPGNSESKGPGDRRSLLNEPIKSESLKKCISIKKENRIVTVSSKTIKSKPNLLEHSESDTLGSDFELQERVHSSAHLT
# How the values were obtained:
# Cep78-HA (mouse) = target: T1, Cep78-HA (mouse); test: co-IP; HEK293T cells co-transfected with HA- and Flag-tagged mouse proteins, lysed 48 hr after transfection in Pierce IP lysis buffer; anti-HA magnetic beads or anti-DYKDDDDK resin at 4°C overnight; legend: 'in 1% SDS'; immunoblot with anti-HA or anti-Flag; Ap80-NB-HA as negative control
# [1] = target: T2, Centrosomal protein of 78 kDa (Cep78), endogenous mouse testicular protein (mouse (endogenous in testis)); test: SEC; 2.43 mg wild type C57BL/6J mouse testicular lysate on a Superose 6 increase 10/300 GL column, 1 mL fractions western blotted for Ttc21a, Cep78 and Ift20, Vrk1 as negative control
Molecule,binding (Cep78-HA (mouse)),binding [1]
"Intraflagellar transport protein 20 homolog (Ift20), endogenous mouse testicular protein (from UniProt Q61025 1-132)",,binds
"Tetratricopeptide repeat protein 21 A (Ttc21a), endogenous mouse testicular protein (protein, UniProt Q8C0S4 1-1314) MSSDDSSLMASIIYYSQEKYFHHVLQAANVGLERYSSDPALQFFRAYGILGEDHIHDAISELEGIQSHPDTSLCAVIALLSAHKSCDTIDIEAVQELESSLKEIRRSASSTALYYASLFLWFMGHHDKAREYVDHMLKVSSGSKEGYVLKGWVDLTSSKPHVVKKSIKYLEQGTQDTKDVLGLMGKATYFMTQQNFSGALEVANQVTLACSNFLPALVLKMKLFLARQDWDQTIETGQRILEKDENNIDAWQILAVHELVKEGNTDRAADRVRNLIKALETGEPHNPNLHLKKILVISRLCGRHQVVHRLVSGFLERIFMATPSCALVATELGYLFILHQQVKEACLWYKEAMKLEENRLAALAGSIWCQILQGQLEEAAHQLEFLKEVQQSLGKSELLVFLQALVAAKKQRLEQEATALLKEAVEVHFSSMQGLALSPEYFEKLDPLFLVCIAKEYLHFCPKQPRSPGQLVSPLLKQVAMILSPVVKVAPAMMEPLYVTAQVKFLSGELENAQSTLQRCLELDPTFVDAHLLMSQIYLAQGNFAMCSHCLELGVSHNFQVRDHPLYHFIKARALNKTGDYAEAIKTLKMIIKVPTSKAEEGRKSQSPSVRPSERASILLELVEALRLNGELHEATKIMQDAINEFSGTPEEMRITVANVDLALSKGNVDLALNMLRGITPKQPCYTEAKEKMASIYLHTRKDVRLYIGCYVELCEHLPGPHSSLLLGDAFMNIQEPEKALEVYDEAYRKNPHDASLVSRIGQAYVKTHQYAKAINYYEAAQKISGQDFLCCELAELLLKLKKYHKAEKVLKQALERDSGVKDIPSMINEVKCLLLLAKVYKSHKKEEVMETLNLALDLQSRILKRVPLEQSEMIPFQNQLAASICIQIGEHHLAEKDYDSALKSYKDALAYSPTDSKVVLELAHLYLLLGQLDLCEQRCAPLLEMEQTHERAAVMLADLMFRRQNYETAINLYHQVLEKAPDNFLVLNKLVDLLRRSGKLEEAPAFFELAKKVSSRVPLEPGFNYCQGIYFWHIGQPNEALRFLNKARKDSTWGQLATCYMVQICLNPDNEIVGGEAFESLVGDSNSASRKESQQHGVRTAEKLLREFYPHSESGQTQLRLLQNLCLLATREKANVEVALGAFIEMAQAEKDSIPALLAMAQAYILLKQVPKARTQLKRLAKVPWTVDEAEDLEKSWLLLADIYCQGGKFDLALELLRRCLQYNKSCCRAYEYMGFIMEKEQSYKDAATNYELAWKYSHQANPAIGFKLAFNYLKDKKFVDAIEVCHSVLTEHPKYPKIREEILEKAQGSLRP",,binds

# The next lines start with the values.
binding (Cep78-HA (mouse)),binding [1],Molecule
binds,,Ift20-Flag (from UniProt Q61025 1-132)
binds,,"Ttc21a-Flag (protein, UniProt Q8C0S4 1-1314) MSSDDSSLMASIIYYSQEKYFHHVLQAANVGLERYSSDPALQFFRAYGILGEDHIHDAISELEGIQSHPDTSLCAVIALLSAHKSCDTIDIEAVQELESSLKEIRRSASSTALYYASLFLWFMGHHDKAREYVDHMLKVSSGSKEGYVLKGWVDLTSSKPHVVKKSIKYLEQGTQDTKDVLGLMGKATYFMTQQNFSGALEVANQVTLACSNFLPALVLKMKLFLARQDWDQTIETGQRILEKDENNIDAWQILAVHELVKEGNTDRAADRVRNLIKALETGEPHNPNLHLKKILVISRLCGRHQVVHRLVSGFLERIFMATPSCALVATELGYLFILHQQVKEACLWYKEAMKLEENRLAALAGSIWCQILQGQLEEAAHQLEFLKEVQQSLGKSELLVFLQALVAAKKQRLEQEATALLKEAVEVHFSSMQGLALSPEYFEKLDPLFLVCIAKEYLHFCPKQPRSPGQLVSPLLKQVAMILSPVVKVAPAMMEPLYVTAQVKFLSGELENAQSTLQRCLELDPTFVDAHLLMSQIYLAQGNFAMCSHCLELGVSHNFQVRDHPLYHFIKARALNKTGDYAEAIKTLKMIIKVPTSKAEEGRKSQSPSVRPSERASILLELVEALRLNGELHEATKIMQDAINEFSGTPEEMRITVANVDLALSKGNVDLALNMLRGITPKQPCYTEAKEKMASIYLHTRKDVRLYIGCYVELCEHLPGPHSSLLLGDAFMNIQEPEKALEVYDEAYRKNPHDASLVSRIGQAYVKTHQYAKAINYYEAAQKISGQDFLCCELAELLLKLKKYHKAEKVLKQALERDSGVKDIPSMINEVKCLLLLAKVYKSHKKEEVMETLNLALDLQSRILKRVPLEQSEMIPFQNQLAASICIQIGEHHLAEKDYDSALKSYKDALAYSPTDSKVVLELAHLYLLLGQLDLCEQRCAPLLEMEQTHERAAVMLADLMFRRQNYETAINLYHQVLEKAPDNFLVLNKLVDLLRRSGKLEEAPAFFELAKKVSSRVPLEPGFNYCQGIYFWHIGQPNEALRFLNKARKDSTWGQLATCYMVQICLNPDNEIVGGEAFESLVGDSNSASRKESQQHGVRTAEKLLREFYPHSESGQTQLRLLQNLCLLATREKANVEVALGAFIEMAQAEKDSIPALLAMAQAYILLKQVPKARTQLKRLAKVPWTVDEAEDLEKSWLLLADIYCQGGKFDLALELLRRCLQYNKSCCRAYEYMGFIMEKEQSYKDAATNYELAWKYSHQANPAIGFKLAFNYLKDKKFVDAIEVCHSVLTEHPKYPKIREEILEKAQGSLRP"
